The list is a part of this screen's results and no random one: it gathers tests that were run many times, whatever their T/C, doses with no T/C, and many T/C values between a quarter and a half above the control. Further doses and runs are listed elsewhere. T/C is the treated group as % of the vehicle group. Some doses have a count of surviving animals in place of a T/C: the source holds a T/C of zero for them, seemingly a mark for toxic or unscored doses. Some survivor counts are full or nearly so, which does not show that the dose was tolerated: the source hardly ever lists a survival T/C far under the control, and the zero likely stands for such cases as well. Survivors were counted at the toxicity check, usually on the fifth day, unless a day is given; later deaths do not show. Schedules are NCI's codes, taken here to give the interval after Q, in days (D) or hours (H), and the number of doses after X. Some molecules as drawn cover several salts, stereoisomers or complexes of the source; a dose is that of the sample tested. Some doses were run more than once; the results are listed from low to high. Where survival is the endpoint, the PubChem record calls one and a half times the control and up active, and a quarter to a half above the control has no call in these data; cut-offs in other NCI protocols can differ. Some T/C values carry the count of animals alive at the toxicity check (mostly the fifth day); where none is given, no animal had died by that day.
System: BDF1 mice, B16 melanoma ip, median survival T/C
Assay: NCI In Vivo Anticancer Drug Screen. Data for tumor model B16 Melanoma (intraperitoneal) in B6D2F1 (BDF1) mice
Conditions: T/C endpoint: median survival time, higher T/C = longer survival
Method in brief: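 Tumor-bearing mice received test compound or vehicle. Survival or tumor size was then measured in both groups. The treated-group figure was divided by the control-group figure.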

[1] = dose: 2.0 mg/kg/injection, schedule: Q01DX009 (ip), vehicle: water
[2] = dose: 100.0 mg/kg/injection, schedule: Q01DX009 (ip), vehicle: Klucel (hydroxypropylcellulose) (HPC)
[3] = dose: 12.5 mg/kg/injection, schedule: Q01DX009 (ip), vehicle: Klucel (hydroxypropylcellulose) (HPC)
[4] = dose: 50.0 mg/kg/injection, schedule: Q01DX009 (ip), vehicle: Klucel (hydroxypropylcellulose) (HPC)

Compound: CC[C@@]1(O)C[C@H](OC2CC(N(C)C)C(OC3CC(O)C(OC4CCC(=O)C(C)O4)C(C)O3)C(C)O2)c2c(cc3c(c2O)C(=O)c2c(O)ccc(O)c2C3=O)[C@H]1C(=O)OC (stereo not given in full)
- T/C (dose: 0.5 mg/kg/injection, schedule: Q01DX009 (ip), vehicle: saline): 146 % of control
- T/C (dose: 0.5 mg/kg/injection, schedule: Q01DX009 (ip), vehicle: water): 129 % of control
- T/C (dose: 0.75 mg/kg/injection, schedule: Q01DX009 (ip), vehicle: saline): 138 % of control
- T/C (dose: 1.0 mg/kg/injection, schedule: Q01DX009 (ip), vehicle: water, evaluated on day 35): 130 % of control
- T/C (dose: 1.0 mg/kg/injection, schedule: Q01DX009 (ip), vehicle: water, evaluated on day 60): 129 % of control
- survivor count (dose: 2.0 mg/kg/injection, schedule: Q01DX009 (ip), vehicle: saline): 9 of 10
- T/C [1]: 133 % of control
- survivor count [1]: 10 of 10
- survivor count (dose: 3.0 mg/kg/injection, schedule: Q01DX009 (ip), vehicle: saline): 10 of 10
- survivor count (dose: 4.0 mg/kg/injection, schedule: Q01DX009 (ip), vehicle: saline): 8 of 10
- survivor count (dose: 4.0 mg/kg/injection, schedule: Q01DX009 (ip), vehicle: water): 7 of 10 and 10 of 10
- survivor count (dose: 6.0 mg/kg/injection, schedule: Q01DX009 (ip), vehicle: saline): 6 of 10 and 9 of 10
- survivor count (dose: 8.0 mg/kg/injection, schedule: Q01DX009 (ip), vehicle: water): 9 of 10
- survivor count (dose: 12.0 mg/kg/injection, schedule: Q04DX003 (ip), vehicle: saline): 10 of 10
- survivor count (dose: 16.7 mg/kg/injection, schedule: Q01DX001 (ip), vehicle: water): 5 of 8

Compound: CC(=O)O.[Pb]
- survivor count (dose: 25.0 mg/kg/injection, schedule: Q04DX003 (ip), vehicle: saline with Tween-80): 8 of 10
- survivor count (dose: 50.0 mg/kg/injection, schedule: Q04DX003 (ip), vehicle: saline with Tween-80): 8 of 10
- survivor count (dose: 100.0 mg/kg/injection, schedule: Q04DX003 (ip), vehicle: saline with Tween-80): 6 of 10
- survivor count (dose: 200.0 mg/kg/injection, schedule: Q04DX003 (ip), vehicle: saline with Tween-80): 6 of 10

Compound: CCOC(OCC)C(=O)NNC(C)C
- T/C (dose: 25.0 mg/kg/injection, schedule: Q01DX009 (ip), vehicle: saline): 135 % of control
- survivor count (dose: 100.0 mg/kg/injection, schedule: Q01DX009 (ip), vehicle: saline): 10 of 10

Compound: COc1ccc(Cl)cc1NC(=O)Nc1ccccc1
- survivor count [2]: 10 of 10
- survivor count (dose: 200.0 mg/kg/injection, schedule: Q01DX009 (ip), vehicle: Klucel (hydroxypropylcellulose) (HPC)): 10 of 10
- survivor count (dose: 400.0 mg/kg/injection, schedule: Q01DX009 (ip), vehicle: Klucel (hydroxypropylcellulose) (HPC)): 10 of 10

Compound: CC1=CC(=Nc2ccc(N(CCCl)CCCl)cc2)C=C(C)C1=O
- T/C [3]: 131 % of control
- survivor count [3]: 10 of 10
- T/C (dose: 25.0 mg/kg/injection, schedule: Q01DX009 (ip), vehicle: Klucel (hydroxypropylcellulose) (HPC)): 136 and 136 % of control [9 of 10 alive]
- T/C [4]: 128 and 130 % of control
- survivor count [4]: 10 of 10
- survivor count [2]: 9 of 10
